Assay results from doi:10.1101/2025.05.30.657104.
No constants are given. Whether binding was seen depends on the method and setting. Binding seen in cells or lysates may run through a third protein. These calls come from enrichment with a bait or labelling near it, and not all partners need be listed. For some assays here: No binding means not detected with the bait.

Tests used:
[1] = molecular target: Protein kinase C alpha (PKCα) WT (human) (UniProt P17252); experiment: affinity purification with mass spectrometry
[2] = molecular target: Protein kinase C alpha D463H (PKCα_(D463H)) (human) (UniProt P17252); experiment: affinity purification with mass spectrometry

binding [1]: binds
binding [2]: no binding
B1: GIT2 (protein, UniProt Q14161 1-759)
chain: MSKRLRSSEVCADCSGPDPSWASVNRGTFLCDECCSVHRSLGRHISQVRHLKHTPWPPTLLQMVETLYNNGANSIWEHSLLDPASIMSGRRKANPQDKVHPNKAEFIRAKYQMLAFVHRLPCRDDDSVTAKDLSKQLHSSVRTGNLETCLRLLSLGAQANFFHPEKGNTPLHVASKAGQILQAELLAVYGADPGTQDSSGKTPVDYARQGGHHELAERLVEIQYELTDRLAFYLCGRKPDHKNGQHFIIPQMADSSLDLSELAKAAKKKLQSLSNHLFEELAMDVYDEVDRRETDAVWLATQNHSALVTETTVVPFLPVNPEYSSTRNQGRQKLARFNAHEFATLVIDILSDAKRRQQGSSLSGSKDNVELILKTINNQHSVESQDNDQPDYDSVASDEDTDLETTASKTNRQKSLDSDLSDGPVTVQEFMEVKNALVASEAKIQQLMKVNNNLSDELRIMQKKLQTLQSENSNLRKQATTNVYQVQTGSEYTDTSNHSSLKRRPSARGSRPMSMYETGSGQKPYLPMGEASRPEESRMRLQPFPAHIGRSALVTSSSSLPSFPSTLSWSRDESARRASRLEKQNSTPESDYDNTPNDMEPDGMGSSRKGRQRSMVWPGDGLVPDTAEPHVAPSPTLPSTEDVIRKTEQITKNIQELLRAAQENKHDSYIPCSERIHVAVTEMAALFPKKPKSDMVRTSLRLLTSSAYRLQSECKKTLPGDPGSPTDVQLVTQQVIQCAYDIAKAAKQLVTITTKENNN
